These are yes or no findings as the source states them, for the method shown. In cells and extracts the contact can be indirect. Some binding calls cover weakened binding; strength is not graded here. For part of these data: Where a sequence is shown, tags or fusion partners need not be part of it.
How the values were obtained:
[1] = biological target: T1, Flotillin-2 (Flot2), endogenous (mouse (endogenous in differentiated mouse podocytes and C57Bl/6 renal cortex)) (UniProt Q60634); test: co-IP; endogenous proteins in renal cortex lysates from C57Bl/6 mice; reciprocal immunoprecipitation with anti-flot2 or anti-podocin
T1 sequence: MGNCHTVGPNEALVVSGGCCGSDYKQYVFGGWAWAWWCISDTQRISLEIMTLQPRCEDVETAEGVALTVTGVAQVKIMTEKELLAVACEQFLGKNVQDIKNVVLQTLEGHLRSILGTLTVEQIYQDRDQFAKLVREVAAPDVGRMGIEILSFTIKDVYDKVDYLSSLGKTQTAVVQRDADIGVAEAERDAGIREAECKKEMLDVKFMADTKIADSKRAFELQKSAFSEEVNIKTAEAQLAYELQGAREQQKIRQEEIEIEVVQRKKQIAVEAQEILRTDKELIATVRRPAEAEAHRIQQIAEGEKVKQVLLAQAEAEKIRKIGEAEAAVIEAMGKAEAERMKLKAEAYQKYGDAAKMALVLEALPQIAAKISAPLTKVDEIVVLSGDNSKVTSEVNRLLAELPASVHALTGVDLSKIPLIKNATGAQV

[2] = biological target: T1, Flotillin-2 (Flot2), endogenous (mouse (endogenous in differentiated mouse podocytes and C57Bl/6 renal cortex)); test: co-IP; endogenous proteins in differentiated mouse podocytes; lysate incubated with anti-flot2, anti-podocin or IgG for 4 h at 4 °C, protein A/G agarose; western blot
[3] = biological target: T2, Flag-tagged podocin domains p2+3+4 (amino acids 107-385) (UniProt Q91X05); test: co-IP; HA-tagged Flot2 constructs and Flag-tagged podocin constructs expressed in HEK-293T cells; immunoprecipitation with anti-HA or anti-Flag (IgG as control), immunoblot for the other tag
T2 sequence: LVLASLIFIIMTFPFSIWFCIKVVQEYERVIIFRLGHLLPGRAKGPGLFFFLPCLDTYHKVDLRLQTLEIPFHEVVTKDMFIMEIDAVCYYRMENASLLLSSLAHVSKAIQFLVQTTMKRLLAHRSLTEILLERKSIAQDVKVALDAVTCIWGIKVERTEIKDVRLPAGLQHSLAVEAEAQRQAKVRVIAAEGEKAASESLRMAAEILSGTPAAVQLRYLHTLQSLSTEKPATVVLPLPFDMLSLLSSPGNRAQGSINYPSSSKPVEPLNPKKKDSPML

[4] = biological target: T3, Flag-tagged podocin domain P3 (amino acids 128-284) (UniProt Q91X05); test: as above
T3 sequence: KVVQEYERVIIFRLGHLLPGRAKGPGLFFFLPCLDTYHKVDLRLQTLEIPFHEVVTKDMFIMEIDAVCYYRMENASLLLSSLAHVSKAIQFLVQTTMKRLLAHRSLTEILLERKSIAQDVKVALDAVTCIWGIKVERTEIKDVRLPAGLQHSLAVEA

[5] = biological target: T4, Flag-tagged podocin domains P3+4 (amino acids 128-385) (UniProt Q91X05); test: as above
T4 sequence: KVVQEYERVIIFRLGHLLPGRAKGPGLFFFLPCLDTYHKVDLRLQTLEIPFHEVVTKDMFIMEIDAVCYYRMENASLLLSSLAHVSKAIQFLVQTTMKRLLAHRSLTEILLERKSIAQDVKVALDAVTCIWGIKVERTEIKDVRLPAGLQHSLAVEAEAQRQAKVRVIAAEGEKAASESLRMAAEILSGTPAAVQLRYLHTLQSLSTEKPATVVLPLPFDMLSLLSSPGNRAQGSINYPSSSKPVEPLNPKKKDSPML

[6] = biological target: T5, Flag-tagged Full-length podocin (amino acids 1-385) (UniProt Q91X05); test: as above
T5 sequence: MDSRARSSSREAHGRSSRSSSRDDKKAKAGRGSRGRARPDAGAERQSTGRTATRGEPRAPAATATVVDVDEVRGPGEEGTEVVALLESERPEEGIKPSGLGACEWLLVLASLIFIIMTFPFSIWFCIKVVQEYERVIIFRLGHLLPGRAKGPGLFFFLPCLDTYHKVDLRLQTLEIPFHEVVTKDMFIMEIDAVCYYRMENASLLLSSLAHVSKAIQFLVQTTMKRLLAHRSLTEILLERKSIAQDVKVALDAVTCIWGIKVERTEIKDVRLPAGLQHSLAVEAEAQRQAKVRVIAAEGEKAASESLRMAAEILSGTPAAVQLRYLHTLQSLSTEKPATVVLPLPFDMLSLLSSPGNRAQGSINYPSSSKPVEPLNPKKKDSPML

[7] = biological target: T6, Flag-tagged podocin domains P2+3 (amino acids 107-284) (UniProt Q91X05); test: as above
T6 sequence: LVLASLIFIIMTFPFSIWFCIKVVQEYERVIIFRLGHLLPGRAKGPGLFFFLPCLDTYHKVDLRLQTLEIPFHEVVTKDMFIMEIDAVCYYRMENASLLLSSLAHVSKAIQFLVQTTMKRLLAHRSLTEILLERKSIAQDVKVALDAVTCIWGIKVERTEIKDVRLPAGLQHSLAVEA

[8] = biological target: T7, HA-tagged flot2 domain F2 (amino acids 30-184) (UniProt Q60634); test: as above
T7 sequence: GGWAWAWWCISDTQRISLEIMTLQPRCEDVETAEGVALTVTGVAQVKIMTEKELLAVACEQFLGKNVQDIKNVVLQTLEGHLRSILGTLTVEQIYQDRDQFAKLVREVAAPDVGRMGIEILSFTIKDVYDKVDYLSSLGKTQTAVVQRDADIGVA

[9] = biological target: T8, GST-Flot2 (amino acids 30-184), SPFH domain (mouse) (UniProt Q60634); test: pull-down; GST pull-down: GST-Flot2 (30-184) or GST on GST resin; His-podocin (128-284) pulled out of the lysates; immunoblot with anti-His; only the target purified
T8 sequence: T7 sequence

[10] = biological target: T9, Podocin, endogenous (mouse (endogenous in differentiated mouse podocytes and C57Bl/6 renal cortex)) (UniProt Q91X05); test: co-IP; endogenous proteins in renal cortex lysates from C57Bl/6 mice; reciprocal immunoprecipitation with anti-flot2 or anti-podocin
T9 sequence: T5 sequence

[11] = biological target: T9, Podocin, endogenous (mouse (endogenous in differentiated mouse podocytes and C57Bl/6 renal cortex)); test: co-IP; endogenous proteins in differentiated mouse podocytes; lysate incubated with anti-flot2, anti-podocin or IgG for 4 h at 4 °C, protein A/G agarose; western blot
[12] = biological target: T10, HA-tagged flot2 domains F1+2 (amino acids 1-184) (UniProt Q60634); test: co-IP; HA-tagged Flot2 constructs and Flag-tagged podocin constructs expressed in HEK-293T cells; immunoprecipitation with anti-HA or anti-Flag (IgG as control), immunoblot for the other tag
T10 sequence: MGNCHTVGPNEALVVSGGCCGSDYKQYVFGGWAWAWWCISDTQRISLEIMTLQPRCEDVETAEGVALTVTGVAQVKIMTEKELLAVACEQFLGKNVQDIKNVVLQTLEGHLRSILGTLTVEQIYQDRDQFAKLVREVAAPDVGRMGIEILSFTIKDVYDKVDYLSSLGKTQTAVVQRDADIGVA

[13] = biological target: T11, HA-tagged Full-length flot2 (amino acids 1-428) (UniProt Q60634); test: as above
T11 sequence: T1 sequence

B1: Podocin, endogenous (protein, UniProt Q91X05 1-385)
chain: T5 sequence
[1]
  binding: binds
[2]
  binding: binds

B2: HA-tagged Full-length flot2 (amino acids 1-428) (protein, UniProt Q60634 1-428)
chain: T1 sequence
[3]
  binding: binds
[4]
  binding: binds
[5]
  binding: binds
[6]
  binding: binds
[7]
  binding: binds

B3: Flag-tagged podocin domain P3 (amino acids 128-284) (domain or fragment, UniProt Q91X05 128-284)
chain: T3 sequence
[8]
  binding: binds

B4: HA-tagged flot2 domain F2 (amino acids 30-184) (domain or fragment, UniProt Q60634 30-184)
chain: T7 sequence
[4]
  binding: binds

B5: His-podocin (amino acids 128-284), SPFH domain (domain or fragment, UniProt Q91X05 128-284)
chain: T3 sequence
[9]
  binding: binds

B6: Flotillin-2 (Flot2), endogenous (protein, UniProt Q60634 1-428)
chain: T1 sequence
[10]
  binding: binds
[11]
  binding: binds

B7: Flag-tagged Full-length podocin (amino acids 1-385) (protein, UniProt Q91X05 1-385)
chain: T5 sequence
[12]
  binding: binds
[13]
  binding: binds
[8]
  binding: binds

— PMC9830511, “Flot2 acts as a novel mediator of podocyte injury in proteinuric kidney disease” (International Journal of Biological Sciences, 2023)
